# This is one part of the list.
# By UniProt entry, the sequences of proteins in these tests, tags left out. Where a name states a change or a piece, a line headed by the entry shows the natural chain unless it says otherwise.
# UniProt P49715, whole entry: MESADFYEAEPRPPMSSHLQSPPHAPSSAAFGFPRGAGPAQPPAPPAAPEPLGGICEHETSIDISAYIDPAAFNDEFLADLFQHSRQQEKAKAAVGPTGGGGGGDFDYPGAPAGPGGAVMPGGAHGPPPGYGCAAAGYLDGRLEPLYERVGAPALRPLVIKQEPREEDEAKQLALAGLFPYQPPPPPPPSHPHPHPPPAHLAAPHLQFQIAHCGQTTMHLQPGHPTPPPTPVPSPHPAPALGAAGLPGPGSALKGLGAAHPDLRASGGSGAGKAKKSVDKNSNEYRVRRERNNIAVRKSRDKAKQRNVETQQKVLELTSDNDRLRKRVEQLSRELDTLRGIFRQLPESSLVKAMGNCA
# UniProt Q9UIV1, whole entry: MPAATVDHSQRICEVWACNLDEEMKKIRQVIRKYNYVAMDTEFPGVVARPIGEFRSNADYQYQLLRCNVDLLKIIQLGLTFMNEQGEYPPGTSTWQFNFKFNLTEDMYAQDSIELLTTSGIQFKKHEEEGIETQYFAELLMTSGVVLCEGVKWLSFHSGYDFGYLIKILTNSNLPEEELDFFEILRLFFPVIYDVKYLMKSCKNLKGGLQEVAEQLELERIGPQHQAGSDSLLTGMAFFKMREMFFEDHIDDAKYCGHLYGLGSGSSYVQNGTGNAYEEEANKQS
# UniProt Q99459: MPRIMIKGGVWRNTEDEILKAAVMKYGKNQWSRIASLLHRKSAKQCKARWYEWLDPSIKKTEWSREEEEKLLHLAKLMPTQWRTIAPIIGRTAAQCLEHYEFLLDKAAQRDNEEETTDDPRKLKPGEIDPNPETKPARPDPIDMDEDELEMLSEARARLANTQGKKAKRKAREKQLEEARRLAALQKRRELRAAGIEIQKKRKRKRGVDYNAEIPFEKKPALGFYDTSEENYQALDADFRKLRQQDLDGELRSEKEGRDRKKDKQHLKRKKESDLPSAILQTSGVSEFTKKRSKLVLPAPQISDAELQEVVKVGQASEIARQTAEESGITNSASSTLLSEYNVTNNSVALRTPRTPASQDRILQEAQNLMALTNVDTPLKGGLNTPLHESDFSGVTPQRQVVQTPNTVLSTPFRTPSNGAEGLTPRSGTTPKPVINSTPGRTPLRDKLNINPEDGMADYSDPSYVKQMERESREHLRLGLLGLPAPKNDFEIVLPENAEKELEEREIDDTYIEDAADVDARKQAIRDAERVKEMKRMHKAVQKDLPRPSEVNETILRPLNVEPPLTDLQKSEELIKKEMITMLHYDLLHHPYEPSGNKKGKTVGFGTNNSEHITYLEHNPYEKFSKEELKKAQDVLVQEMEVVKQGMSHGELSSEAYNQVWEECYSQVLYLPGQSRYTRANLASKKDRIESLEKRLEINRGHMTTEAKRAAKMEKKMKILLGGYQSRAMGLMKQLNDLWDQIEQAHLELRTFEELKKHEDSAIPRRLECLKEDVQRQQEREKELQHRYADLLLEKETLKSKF
# UniProt Q8TCZ2: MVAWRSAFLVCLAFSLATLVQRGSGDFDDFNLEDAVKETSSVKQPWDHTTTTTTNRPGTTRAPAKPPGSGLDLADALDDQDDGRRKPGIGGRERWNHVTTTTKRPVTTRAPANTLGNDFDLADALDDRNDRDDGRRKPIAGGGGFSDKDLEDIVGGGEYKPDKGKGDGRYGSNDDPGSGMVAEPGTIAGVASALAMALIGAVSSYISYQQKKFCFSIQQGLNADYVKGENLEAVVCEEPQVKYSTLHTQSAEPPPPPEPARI
# UniProt Q9P000, whole entry: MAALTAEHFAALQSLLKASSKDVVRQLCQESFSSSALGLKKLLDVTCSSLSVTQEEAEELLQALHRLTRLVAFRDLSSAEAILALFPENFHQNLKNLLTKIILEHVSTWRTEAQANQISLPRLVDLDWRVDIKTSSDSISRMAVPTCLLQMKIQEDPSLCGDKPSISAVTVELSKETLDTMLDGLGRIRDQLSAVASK
# UniProt P13987: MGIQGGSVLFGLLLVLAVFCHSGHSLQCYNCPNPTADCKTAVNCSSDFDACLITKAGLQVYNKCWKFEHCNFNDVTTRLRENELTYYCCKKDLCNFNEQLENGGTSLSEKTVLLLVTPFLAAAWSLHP
# UniProt Q9NY35: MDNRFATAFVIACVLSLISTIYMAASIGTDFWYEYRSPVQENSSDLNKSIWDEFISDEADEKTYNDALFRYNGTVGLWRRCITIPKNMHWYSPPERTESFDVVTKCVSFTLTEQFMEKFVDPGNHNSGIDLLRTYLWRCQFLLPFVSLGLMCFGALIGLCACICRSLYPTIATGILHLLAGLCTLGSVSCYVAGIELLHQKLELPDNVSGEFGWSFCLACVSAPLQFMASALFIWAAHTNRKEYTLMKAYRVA
# UniProt Q7Z4G1, whole entry: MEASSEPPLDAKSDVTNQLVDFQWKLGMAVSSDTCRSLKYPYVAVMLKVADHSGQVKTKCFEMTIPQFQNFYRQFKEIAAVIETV
# UniProt O95825: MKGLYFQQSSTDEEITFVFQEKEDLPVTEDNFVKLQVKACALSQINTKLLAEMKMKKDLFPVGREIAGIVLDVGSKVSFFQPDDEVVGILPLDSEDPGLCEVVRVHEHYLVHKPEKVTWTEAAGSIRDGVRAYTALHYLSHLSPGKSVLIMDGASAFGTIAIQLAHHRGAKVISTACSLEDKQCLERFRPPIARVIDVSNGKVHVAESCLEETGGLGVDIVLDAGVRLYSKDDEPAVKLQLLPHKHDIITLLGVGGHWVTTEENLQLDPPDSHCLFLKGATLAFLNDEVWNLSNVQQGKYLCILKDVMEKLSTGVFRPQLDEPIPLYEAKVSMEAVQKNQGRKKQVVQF
# Compound: COc1ccc(Cn2ccc3cc(C)c(C(=O)NO)cc32)cc1
# Assay: dose-dependent thermal stabilisation call (2D-TPP, DLPTP, 10% FDR) (binary (1 = stabilised)); higher = stabilised by the compound
# Conditions: system: HL-60 intact cells; concentration range 0.04-10 µM
# Description: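 2D thermal proteome profiling in intact HL-60 cells treated with BRD-3811 (0, 0.04, 0.29, 2, 10 uM) for 90 min at 37 C, then heated 3 min at one of 12 temperatures (42-63.9 C). Soluble protein was quantified by TMT10 MS. The value is the DLPTP call of the paper: dose-dependent thermal stabilisation over all temperatures at 10% FDR (F-test of a dose-response against a flat model); one experiment, one call per tested protein.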
row,Target,dose-dependent thermal stabilisation call
1,CEBPA (UniProt P49715),inactive: 0
2,CNOT7 (UniProt Q9UIV1),inactive: 0
3,CDC5L (UniProt Q99459),inactive: 0
4,CD99L2 (UniProt Q8TCZ2),inactive: 0
5,COMMD9 (UniProt Q9P000),inactive: 0
6,CD59 (UniProt P13987),inactive: 0
7,CLDND1 (UniProt Q9NY35),inactive: 0
8,COMMD6 (UniProt Q7Z4G1),inactive: 0
9,CRYZL1 (UniProt O95825),inactive: 0

# Two consecutive entries already listed, for reference:
row,Target,dose-dependent thermal stabilisation call
8,COMMD6 (UniProt Q7Z4G1),inactive: 0
9,CRYZL1 (UniProt O95825),inactive: 0

# Source: the supplement of paper PMC7666118
